In paper PMC13507320, “Synergistic effect of PIP2 and PIP3 on membrane-induced phase separation of integrin complexes” (Biophysical Journal, 2025):
These are yes or no findings as the source states them, for the method shown. Some binding calls cover weakened binding; strength is not graded here.

Protein sequences, listed by entry. Tags and fused reporters are not part of them. Residues count along the entry.
UniProt P05556, residues 752-798: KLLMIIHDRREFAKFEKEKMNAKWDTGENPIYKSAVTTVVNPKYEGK
UniProt Q9Y490: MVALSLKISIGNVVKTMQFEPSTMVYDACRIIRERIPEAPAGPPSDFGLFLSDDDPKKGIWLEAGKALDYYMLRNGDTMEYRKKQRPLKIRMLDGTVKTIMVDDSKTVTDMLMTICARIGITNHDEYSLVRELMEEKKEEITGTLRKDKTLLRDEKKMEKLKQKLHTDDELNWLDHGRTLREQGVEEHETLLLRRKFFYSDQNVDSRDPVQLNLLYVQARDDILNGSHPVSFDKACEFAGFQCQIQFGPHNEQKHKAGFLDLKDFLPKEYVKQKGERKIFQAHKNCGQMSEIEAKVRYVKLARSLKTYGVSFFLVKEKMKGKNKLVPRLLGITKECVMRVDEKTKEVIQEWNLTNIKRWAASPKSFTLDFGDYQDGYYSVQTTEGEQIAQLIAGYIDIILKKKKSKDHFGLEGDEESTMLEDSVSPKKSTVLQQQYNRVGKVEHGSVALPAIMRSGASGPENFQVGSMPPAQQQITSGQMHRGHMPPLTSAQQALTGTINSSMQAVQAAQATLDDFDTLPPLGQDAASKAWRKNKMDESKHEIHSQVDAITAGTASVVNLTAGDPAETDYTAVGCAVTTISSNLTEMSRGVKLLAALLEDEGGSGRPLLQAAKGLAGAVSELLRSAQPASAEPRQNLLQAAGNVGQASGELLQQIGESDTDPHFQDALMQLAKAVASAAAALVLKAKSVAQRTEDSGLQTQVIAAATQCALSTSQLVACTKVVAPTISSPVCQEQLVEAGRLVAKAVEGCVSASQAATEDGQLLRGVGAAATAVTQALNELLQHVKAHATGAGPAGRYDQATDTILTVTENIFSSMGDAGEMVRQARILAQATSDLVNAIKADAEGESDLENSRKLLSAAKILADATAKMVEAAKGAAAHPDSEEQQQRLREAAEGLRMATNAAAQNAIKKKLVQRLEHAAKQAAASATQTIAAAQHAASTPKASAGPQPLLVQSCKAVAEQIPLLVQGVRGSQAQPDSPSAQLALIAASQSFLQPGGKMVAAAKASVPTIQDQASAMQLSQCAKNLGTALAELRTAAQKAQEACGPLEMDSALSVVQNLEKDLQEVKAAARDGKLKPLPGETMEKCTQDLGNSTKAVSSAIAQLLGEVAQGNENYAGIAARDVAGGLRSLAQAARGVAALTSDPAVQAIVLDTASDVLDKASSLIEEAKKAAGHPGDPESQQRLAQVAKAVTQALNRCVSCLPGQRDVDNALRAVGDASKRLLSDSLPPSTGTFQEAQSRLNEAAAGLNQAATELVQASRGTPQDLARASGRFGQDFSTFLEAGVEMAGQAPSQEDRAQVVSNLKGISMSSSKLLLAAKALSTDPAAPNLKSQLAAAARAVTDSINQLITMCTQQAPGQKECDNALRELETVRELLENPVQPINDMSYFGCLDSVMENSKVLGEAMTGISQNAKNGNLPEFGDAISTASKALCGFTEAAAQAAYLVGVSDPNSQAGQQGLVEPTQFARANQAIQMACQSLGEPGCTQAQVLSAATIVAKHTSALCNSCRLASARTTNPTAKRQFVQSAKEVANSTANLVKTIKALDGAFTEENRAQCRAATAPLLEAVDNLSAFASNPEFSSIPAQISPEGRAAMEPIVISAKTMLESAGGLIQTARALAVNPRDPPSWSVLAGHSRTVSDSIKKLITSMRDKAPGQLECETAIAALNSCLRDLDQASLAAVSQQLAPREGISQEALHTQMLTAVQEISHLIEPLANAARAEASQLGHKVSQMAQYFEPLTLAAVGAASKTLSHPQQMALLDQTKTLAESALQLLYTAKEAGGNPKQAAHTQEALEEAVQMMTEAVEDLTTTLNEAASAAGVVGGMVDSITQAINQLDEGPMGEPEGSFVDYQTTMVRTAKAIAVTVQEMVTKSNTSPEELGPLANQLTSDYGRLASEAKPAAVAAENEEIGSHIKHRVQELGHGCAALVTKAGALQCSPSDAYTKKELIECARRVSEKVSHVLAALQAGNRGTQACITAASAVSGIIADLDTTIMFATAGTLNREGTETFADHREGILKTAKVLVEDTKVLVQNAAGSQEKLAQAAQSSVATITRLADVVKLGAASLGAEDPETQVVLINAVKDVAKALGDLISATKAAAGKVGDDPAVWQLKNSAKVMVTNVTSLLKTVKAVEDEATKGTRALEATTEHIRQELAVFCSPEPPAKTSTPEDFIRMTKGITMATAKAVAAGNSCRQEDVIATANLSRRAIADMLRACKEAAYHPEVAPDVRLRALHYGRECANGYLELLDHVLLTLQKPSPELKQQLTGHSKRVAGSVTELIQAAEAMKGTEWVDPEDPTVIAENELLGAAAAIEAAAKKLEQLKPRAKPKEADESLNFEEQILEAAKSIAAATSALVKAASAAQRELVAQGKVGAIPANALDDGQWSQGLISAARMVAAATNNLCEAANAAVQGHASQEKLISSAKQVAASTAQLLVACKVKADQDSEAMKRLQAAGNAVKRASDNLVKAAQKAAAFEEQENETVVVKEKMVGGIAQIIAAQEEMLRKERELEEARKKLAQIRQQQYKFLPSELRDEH

What was measured:
[1] = molecular target: Atto643-labeled his6-β1 integrin cytoplasmic tail peptide (UniProt P05556); test: FRAP of the tethered partner on supported lipid bilayers (slowdown of diffusion); his6-β1 tails tethered on 5% PIP2, 5% PIP3 and 2.5% PIP2 + 2.5% PIP3 bilayers; 0.1–2 μM kindlin or talin incubated individually for 30 min, then flushed with buffer; diffusion after flush against β1 tails alone; both purified
[2] = molecular target: Atto643-labeled his6-β1 integrin cytoplasmic tail peptide (UniProt P05556); test: FRAP of the tethered partner on supported lipid bilayers (slowdown of diffusion); his6-β1 tails tethered to DGS-NTA-Ni on 2.5% PIP2 + 2.5% PIP3 supported lipid bilayer; 1 μM kindlin or 1 μM talin, 30-min incubation; HEPES buffer pH 7.4, 150 mM KCl, 2.5 μM ZnCl2; both purified
[3] = molecular target: Atto643-labeled his6-β1 integrin cytoplasmic tail peptide (UniProt P05556); test: FRAP of the tethered partner on supported lipid bilayers (slowdown of diffusion); his6-β1 tails tethered on 5% PIP2, 5% PIP3 and 2.5% PIP2 + 2.5% PIP3 bilayers; 1 μM kindlin and 1 μM talin incubated together for 30 min, also after flush; both purified

Measured: binding

His-tagged talin-1 (from UniProt Q9Y490 1-2541)
binds: all assays above

B1: Kindlin-2 (natural protein, UniProt Q96AC1 1-680, looked up)
chain: MALDGIRMPDGCYADGTWELSVHVTDLNRDVTLRVTGEVHIGGVMLKLVEKLDVKKDWSDHALWWEKKRTWLLKTHWTLDKYGIQADAKLQFTPQHKLLRLQLPNMKYVKVKVNFSDRVFKAVSDICKTFNIRHPEELSLLKKPRDPTKKKKKKLDDQSEDEALELEGPLITPGSGSIYSSPGLYSKTMTPTYDAHDGSPLSPTSAWFGDSALSEGNPGILAVSQPITSPEILAKMFKPQALLDKAKINQGWLDSSRSLMEQDVKENEALLLRFKYYSFFDLNPKYDAIRINQLYEQAKWAILLEEIECTEEEMMMFAALQYHINKLSIMTSENHLNNSDKEVDEVDAALSDLEITLEGGKTSTILGDITSIPELADYIKVFKPKKLTLKGYKQYWCTFKDTSISCYKSKEESSGTPAHQMNLRGCEVTPDVNISGQKFNIKLLIPVAEGMNEIWLRCDNEKQYAHWMAACRLASKGKTMADSSYNLEVQNILSFLKMQHLNPDPQLIPEQITTDITPECLVSPRYLKKYKNKQITARILEAHQNVAQMSLIEAKMRFIQAWQSLPEFGITHFIARFQGGKKEELIGIAYNRLIRMDASTGDAIKTWRFSNMKQWNVNWEIKMVTVEFADEVRLSFICTEVDCKVVHEFIGGYIFLSTRAKDQNESLDEEMFYKLTSGWV
notes: Kindlin-2; the species may be mouse there; source: E. coli (DE3) Rosetta 2, purified (Ni-NTA IMAC, SenP2 digest, size-exclusion chromatography); not shown: His-SUMO, N-terminal, cleaved
binds: all assays above
